Test results reported in article PMC11444156.
No constants are given. Whether binding was seen depends on the method and setting. Binding seen in cells or lysates may run through a third protein. These calls come from enrichment with a bait or labelling near it, and not all partners need be listed.

By UniProt entry, the sequences of proteins in these tests, tags left out.
UniProt Q6X632: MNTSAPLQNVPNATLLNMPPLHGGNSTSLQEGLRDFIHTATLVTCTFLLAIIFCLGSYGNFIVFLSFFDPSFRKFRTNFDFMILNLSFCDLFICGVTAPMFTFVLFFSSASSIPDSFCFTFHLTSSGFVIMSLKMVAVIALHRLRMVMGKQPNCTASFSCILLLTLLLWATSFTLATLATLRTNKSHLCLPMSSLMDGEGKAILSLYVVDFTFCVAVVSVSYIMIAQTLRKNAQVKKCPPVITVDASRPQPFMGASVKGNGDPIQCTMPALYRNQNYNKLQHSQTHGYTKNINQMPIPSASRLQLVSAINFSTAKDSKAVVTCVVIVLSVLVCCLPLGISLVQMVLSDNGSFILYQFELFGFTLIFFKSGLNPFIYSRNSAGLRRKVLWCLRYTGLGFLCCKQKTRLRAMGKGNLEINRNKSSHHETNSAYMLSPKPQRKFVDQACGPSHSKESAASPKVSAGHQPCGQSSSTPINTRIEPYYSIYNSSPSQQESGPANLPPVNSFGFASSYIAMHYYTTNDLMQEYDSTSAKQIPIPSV
UniProt P21279: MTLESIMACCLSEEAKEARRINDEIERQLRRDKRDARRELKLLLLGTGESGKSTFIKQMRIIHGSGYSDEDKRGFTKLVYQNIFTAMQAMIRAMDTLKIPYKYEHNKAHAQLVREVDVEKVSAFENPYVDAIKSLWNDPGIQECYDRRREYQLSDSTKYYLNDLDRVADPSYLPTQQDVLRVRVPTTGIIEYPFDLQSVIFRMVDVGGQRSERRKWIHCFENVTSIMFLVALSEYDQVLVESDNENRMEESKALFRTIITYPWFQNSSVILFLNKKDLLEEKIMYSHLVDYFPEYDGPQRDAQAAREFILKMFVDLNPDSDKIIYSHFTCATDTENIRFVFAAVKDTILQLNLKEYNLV

Molecular target: 3xFlag-tagged GPR75 (G protein-coupled receptor 75) of 3xFlag-Gpr75-knockin mice (mouse (endogenous in brain)) (UniProt Q6X632)
Assay: affinity purification with mass spectrometry; Flag antibody-conjugated beads on brain lysates of 3xFlag-Gpr75-knockin mice in Nonidet P-40 lysis buffer, 4°C, eluted with 3xFlag peptides, mass spectrometry

binding: binds
Substance: GNAQ (Gαq), guanine nucleotide-binding protein (from UniProt P21279 1-359)
